Results reported in patent publication US20160264653A1.
Results are given in words; binding and its absence hold for the method and conditions named. Some binding calls cover weakened binding; strength is not graded here.

B1: hSC4.15 (antibody, V domains shown)
VH: EVQLVESGGGLVKPGGSLRLSCAASGFTFSTYGMSWVRQAPGKGLEWVATISSGGTYTYYPDSVKGRFKISRDNAKNSLYLQMNSLRAEDTAVYYCTRHDPNDGYYFLFAYWGQGTLVTVSS
VL: EIVLTQSPGTLSLSPGERATLSCKASQSVGNNVAWYQQKPGQAPRLLIYYASNRYTGIPDRFSGSGSGTDFTLTISRLEPEDFAVYYCQQHYSSPLTFGAGTKLEIK
B2: hSC4.22 (antibody, human IgG1, V domains shown)
VH: QVQLVQSGAEVKKPGASVKVSCKASGYTFTGYYIHWVRQAPGQGLEWMGWIYPGNFNTKYNERFKGRVTMTTDTSTSTAYMELRSLRSDDTAVYYCAREDGSPYYAMDYWGQGTSVTVSS
VL: DIVMTQTPLSLSVTPGQPASISCRSSQSLVHSNGNTFLYWYLQKPGQSPQLLIYRVSNRFSGVPDRFSGSGSGTDFTLKISRVEAEDVGVYYCFQATHVPWTFGGGTKVEIK
B3: hSC4.47 (antibody, human IgG1, V domains shown)
VH: QVQLVQSGAEVKKPGASVKVSCKASGYTFTYFYMNWVRQAPGQGLEWVGQINPNNGGTAYAQKFQGRVTMTRDTSTSTVYMELSSLRSEDTAVYYCARWVGTHYFDYWGQGTTLTVSS
VL: EIVLTQSPATLSLSPGERATLSCRASQSVSSSSYTYIHWYQQKPGQAPRLLINFASNLESGIPARFSGSGSGTDFTLTISSLEPEDFAVYYCQHSWEIPPTFGGGTKLEIK
B4: hSC4.5 (antibody, human IgG1, V domains shown)
VH: EVQLVESGGGLVQPGGSLRLSCAASGFTVTTYGVDWVRQAPGKGLEWLGVIWGGGSTNYNSALKSRFTISRDNSKNTLYLQMNSLRAEDTAVYYCASDWAYWGQGTLVTVSS
VL: DIQMTQSPSSLSASVGDRVTITCRASQNVGTNVAWFQQKPGKAPKSLIHSASYRYSGVPSRFSGSGSGTDFTLTISSLQPEDFATYYCQQYKRYPYTFGGGTKLEIK

Biological target: T1, EFNA4 antigen (human) (UniProt P52798)
T1 sequence: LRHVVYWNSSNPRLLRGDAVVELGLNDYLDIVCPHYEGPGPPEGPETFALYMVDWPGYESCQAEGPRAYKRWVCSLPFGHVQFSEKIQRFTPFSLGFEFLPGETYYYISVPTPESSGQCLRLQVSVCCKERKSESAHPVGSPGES
Assay: SPR (Biacore)

binding, binds:
B1
B2
B3
B4
